Publication doi:10.1101/2025.01.22.634223
These are yes or no findings as the source states them, for the method shown. For some assays here: A result given as binding can be weak or reduced; the word gives no strength. Sequences can lack the tags named with a protein.

Columns and labels:
[1] = target: GDI-1 (wild type), yeast two-hybrid fusion (C. elegans); experiment: two-hybrid
[2] = target: GST::GDI-1 (C. elegans); experiment: pull-down

B1: RAB-28, yeast two-hybrid fusion (protein, UniProt Q9XWR6 1-248)
chain: MTTMGEDEAPALPKKSPLPEKIDEADVDDDPDDKVIKIVVVGDGASGKTSICQRFAKESFDKSYHQTLGLDFFSRRITLPHEMQVLVQVWDIGGQSIAGEMIDKYLTGANIVFLVYDVTNSKSFENAVDWLSVVKKNTKSSETPVKLVLMGNKTDLEERRVVSVEAHKNFATSNDMMPTYVSAKTGDTVFLTFRQAVAEVLNVGLSRAEVEADIEIVQGSVIEQPKQSDASYARRSDQSRSTSVCSIT
For B1, the binding [1] was “binds”.

B2: 6HIS::MYC:RRAB-28::6HIS (protein, UniProt Q9XWR6 1-248)
chain: MTTMGEDEAPALPKKSPLPEKIDEADVDDDPDDKVIKIVVVGDGASGKTSICQRFAKESFDKSYHQTLGLDFFSRRITLPHEMQVLVQVWDIGGQSIAGEMIDKYLTGANIVFLVYDVTNSKSFENAVDWLSVVKKNTKSSETPVKLVLMGNKTDLEERRVVSVEAHKNFATSNDMMPTYVSAKTGDTVFLTFRQAVAEVLNVGLSRAEVEADIEIVQGSVIEQPKQSDASYARRSDQSRSTSVCSIT
B2 was tested, and the binding [2] was “no binding”.
